Literature values in patent US6491950B1, “Controlled release pharmaceutical composition” (Kos Pharmaceuticals, Inc., priority 2000, dated 2002).
Some entries share one result that the patent states for a list of compounds.

Conditions: greater than 1 gram of drug in about 200 milliliters of water; cited from earlier work

## Cn1c(=O)c2[nH]cnc2n(C)c1=O [theophylline]
  solubility in water: greater than 1 g/200 ml of water
